Experimental data reported in patent publication US20220275329A1, “COMPOSITIONS AND METHODS FOR MATURING STEM CELL-DERIVED BETA CELLS” (President and Fellows of Harvard College, priority 2019, published 2022).
For at least one compound, name, drawing or mass did not settle the structure.

Test system: mTORC1
Assay: p-S6 FACS staining of beta cells in isolated human islets (mTORC1 activation)
Type: cell-based
Conditions: for effect on mTORC1 activity (p-S6) in mature beta cells: human islets, 30 minute incubation in RPMI
Source text: Insulin-expressing beta cells appear around embryonic day 13.5 (E13.5) in mice and week 8 and 9 post-conception in humans (Pan and Wright, 2011; Slack, 1995), but glucose-stimulated insulin secretion (GSIS) has been observed only days after birth (Blum et al., 2012). Since a major change from embryonic to postnatal physiology is nutrient consumption, it was predicted that nutrients and nutrient sensing by mTORC1 could have a role in the transition from immature to mature insulin secretion by beta cells. To explore that, the nutrient sensitivity and dynamics of mTORC1 in isolated mature human and mouse islets was first examined.
Differentiated cell clusters or islets were dispersed into single-cell suspension by incubation in TrypLE Express (Invitrogen) at 37° C. until clusters dissociated to single cells upon mixing by pipetting gently up and down (typically 10-15 min). Cells were spun down for 3 min at 1000 rpm, washed once in PBS (1 mL) and transferred to a 1.7 ml microcentrifuge tube (Bioscience; 11510). Cells were resuspended in perm/fix solution and incubated for 10 min (BD 554714). Cells were then washed once in perm/wash for 15 min (BD 554714).
Cells were then resuspended in perm/wash with primary antibodies and incubated at 4° C. overnight. Primary antibodies, diluted 1:300 unless otherwise noted: Mouse anti-Nkx6.1, rat anti-insulin (pro-)IC-peptide, mouse anti-glucagon, rabbit anti-phospho-S6 Ribosomal Protein (Ser240/244). Cells were washed twice in blocking buffer and then incubated in perm/wash buffer with secondary antibodies for 2 hr (protected from light). Secondary antibodies conjugated to Alexa Fluor 405, 488 or 647 (Life Technologies) were used to visualize primary antibodies. Cells were then washed 3 times in perm/wash solution and finally resuspended in 500-700 μl, filtered through a 40 μm nylon mash into flow cytometry tubes (BD Falcon; 352235), and analyzed using the LSR-II flow cytometer (BD Biosciences) with at least 30,000 events recorded. Analysis of the results was performed using FlowJo software. […]

C=C[C@@]1(C)CC(=O)[C@]2(O)[C@@]3(C)[C@@H](O)CCC(C)(C)[C@@H]3[C@H](O)[C@H](OC(C)=O)[C@@]2(C)O1 [Forskolin]
effect on mTORC1 activity (p-S6) in mature beta cells: increased | effect on mTORC1 activity (p-S6) in mature beta cells (listed as forskolin): strongly activate mTORC1 in beta cells | effect on mTORC1 activity suppressed by diazoxide in beta cells (in the presence of diazoxide, glucose and amino acids): rescued
